Source: the supplement of paper PMC12819154, “High-throughput peptide-centric local stability assay extends protein–ligand identification to membrane proteins, tissues and bacteria” (Nature Structural & Molecular Biology, 2025)
The other results are listed elsewhere or left out. Most entries show no effect beyond the scatter of the controls.

The chains behind the UniProt entries cited, without tags or fusion partners. Where a name states a change or a piece, a line headed by the entry shows the natural chain unless it says otherwise.
UniProt E9Q414: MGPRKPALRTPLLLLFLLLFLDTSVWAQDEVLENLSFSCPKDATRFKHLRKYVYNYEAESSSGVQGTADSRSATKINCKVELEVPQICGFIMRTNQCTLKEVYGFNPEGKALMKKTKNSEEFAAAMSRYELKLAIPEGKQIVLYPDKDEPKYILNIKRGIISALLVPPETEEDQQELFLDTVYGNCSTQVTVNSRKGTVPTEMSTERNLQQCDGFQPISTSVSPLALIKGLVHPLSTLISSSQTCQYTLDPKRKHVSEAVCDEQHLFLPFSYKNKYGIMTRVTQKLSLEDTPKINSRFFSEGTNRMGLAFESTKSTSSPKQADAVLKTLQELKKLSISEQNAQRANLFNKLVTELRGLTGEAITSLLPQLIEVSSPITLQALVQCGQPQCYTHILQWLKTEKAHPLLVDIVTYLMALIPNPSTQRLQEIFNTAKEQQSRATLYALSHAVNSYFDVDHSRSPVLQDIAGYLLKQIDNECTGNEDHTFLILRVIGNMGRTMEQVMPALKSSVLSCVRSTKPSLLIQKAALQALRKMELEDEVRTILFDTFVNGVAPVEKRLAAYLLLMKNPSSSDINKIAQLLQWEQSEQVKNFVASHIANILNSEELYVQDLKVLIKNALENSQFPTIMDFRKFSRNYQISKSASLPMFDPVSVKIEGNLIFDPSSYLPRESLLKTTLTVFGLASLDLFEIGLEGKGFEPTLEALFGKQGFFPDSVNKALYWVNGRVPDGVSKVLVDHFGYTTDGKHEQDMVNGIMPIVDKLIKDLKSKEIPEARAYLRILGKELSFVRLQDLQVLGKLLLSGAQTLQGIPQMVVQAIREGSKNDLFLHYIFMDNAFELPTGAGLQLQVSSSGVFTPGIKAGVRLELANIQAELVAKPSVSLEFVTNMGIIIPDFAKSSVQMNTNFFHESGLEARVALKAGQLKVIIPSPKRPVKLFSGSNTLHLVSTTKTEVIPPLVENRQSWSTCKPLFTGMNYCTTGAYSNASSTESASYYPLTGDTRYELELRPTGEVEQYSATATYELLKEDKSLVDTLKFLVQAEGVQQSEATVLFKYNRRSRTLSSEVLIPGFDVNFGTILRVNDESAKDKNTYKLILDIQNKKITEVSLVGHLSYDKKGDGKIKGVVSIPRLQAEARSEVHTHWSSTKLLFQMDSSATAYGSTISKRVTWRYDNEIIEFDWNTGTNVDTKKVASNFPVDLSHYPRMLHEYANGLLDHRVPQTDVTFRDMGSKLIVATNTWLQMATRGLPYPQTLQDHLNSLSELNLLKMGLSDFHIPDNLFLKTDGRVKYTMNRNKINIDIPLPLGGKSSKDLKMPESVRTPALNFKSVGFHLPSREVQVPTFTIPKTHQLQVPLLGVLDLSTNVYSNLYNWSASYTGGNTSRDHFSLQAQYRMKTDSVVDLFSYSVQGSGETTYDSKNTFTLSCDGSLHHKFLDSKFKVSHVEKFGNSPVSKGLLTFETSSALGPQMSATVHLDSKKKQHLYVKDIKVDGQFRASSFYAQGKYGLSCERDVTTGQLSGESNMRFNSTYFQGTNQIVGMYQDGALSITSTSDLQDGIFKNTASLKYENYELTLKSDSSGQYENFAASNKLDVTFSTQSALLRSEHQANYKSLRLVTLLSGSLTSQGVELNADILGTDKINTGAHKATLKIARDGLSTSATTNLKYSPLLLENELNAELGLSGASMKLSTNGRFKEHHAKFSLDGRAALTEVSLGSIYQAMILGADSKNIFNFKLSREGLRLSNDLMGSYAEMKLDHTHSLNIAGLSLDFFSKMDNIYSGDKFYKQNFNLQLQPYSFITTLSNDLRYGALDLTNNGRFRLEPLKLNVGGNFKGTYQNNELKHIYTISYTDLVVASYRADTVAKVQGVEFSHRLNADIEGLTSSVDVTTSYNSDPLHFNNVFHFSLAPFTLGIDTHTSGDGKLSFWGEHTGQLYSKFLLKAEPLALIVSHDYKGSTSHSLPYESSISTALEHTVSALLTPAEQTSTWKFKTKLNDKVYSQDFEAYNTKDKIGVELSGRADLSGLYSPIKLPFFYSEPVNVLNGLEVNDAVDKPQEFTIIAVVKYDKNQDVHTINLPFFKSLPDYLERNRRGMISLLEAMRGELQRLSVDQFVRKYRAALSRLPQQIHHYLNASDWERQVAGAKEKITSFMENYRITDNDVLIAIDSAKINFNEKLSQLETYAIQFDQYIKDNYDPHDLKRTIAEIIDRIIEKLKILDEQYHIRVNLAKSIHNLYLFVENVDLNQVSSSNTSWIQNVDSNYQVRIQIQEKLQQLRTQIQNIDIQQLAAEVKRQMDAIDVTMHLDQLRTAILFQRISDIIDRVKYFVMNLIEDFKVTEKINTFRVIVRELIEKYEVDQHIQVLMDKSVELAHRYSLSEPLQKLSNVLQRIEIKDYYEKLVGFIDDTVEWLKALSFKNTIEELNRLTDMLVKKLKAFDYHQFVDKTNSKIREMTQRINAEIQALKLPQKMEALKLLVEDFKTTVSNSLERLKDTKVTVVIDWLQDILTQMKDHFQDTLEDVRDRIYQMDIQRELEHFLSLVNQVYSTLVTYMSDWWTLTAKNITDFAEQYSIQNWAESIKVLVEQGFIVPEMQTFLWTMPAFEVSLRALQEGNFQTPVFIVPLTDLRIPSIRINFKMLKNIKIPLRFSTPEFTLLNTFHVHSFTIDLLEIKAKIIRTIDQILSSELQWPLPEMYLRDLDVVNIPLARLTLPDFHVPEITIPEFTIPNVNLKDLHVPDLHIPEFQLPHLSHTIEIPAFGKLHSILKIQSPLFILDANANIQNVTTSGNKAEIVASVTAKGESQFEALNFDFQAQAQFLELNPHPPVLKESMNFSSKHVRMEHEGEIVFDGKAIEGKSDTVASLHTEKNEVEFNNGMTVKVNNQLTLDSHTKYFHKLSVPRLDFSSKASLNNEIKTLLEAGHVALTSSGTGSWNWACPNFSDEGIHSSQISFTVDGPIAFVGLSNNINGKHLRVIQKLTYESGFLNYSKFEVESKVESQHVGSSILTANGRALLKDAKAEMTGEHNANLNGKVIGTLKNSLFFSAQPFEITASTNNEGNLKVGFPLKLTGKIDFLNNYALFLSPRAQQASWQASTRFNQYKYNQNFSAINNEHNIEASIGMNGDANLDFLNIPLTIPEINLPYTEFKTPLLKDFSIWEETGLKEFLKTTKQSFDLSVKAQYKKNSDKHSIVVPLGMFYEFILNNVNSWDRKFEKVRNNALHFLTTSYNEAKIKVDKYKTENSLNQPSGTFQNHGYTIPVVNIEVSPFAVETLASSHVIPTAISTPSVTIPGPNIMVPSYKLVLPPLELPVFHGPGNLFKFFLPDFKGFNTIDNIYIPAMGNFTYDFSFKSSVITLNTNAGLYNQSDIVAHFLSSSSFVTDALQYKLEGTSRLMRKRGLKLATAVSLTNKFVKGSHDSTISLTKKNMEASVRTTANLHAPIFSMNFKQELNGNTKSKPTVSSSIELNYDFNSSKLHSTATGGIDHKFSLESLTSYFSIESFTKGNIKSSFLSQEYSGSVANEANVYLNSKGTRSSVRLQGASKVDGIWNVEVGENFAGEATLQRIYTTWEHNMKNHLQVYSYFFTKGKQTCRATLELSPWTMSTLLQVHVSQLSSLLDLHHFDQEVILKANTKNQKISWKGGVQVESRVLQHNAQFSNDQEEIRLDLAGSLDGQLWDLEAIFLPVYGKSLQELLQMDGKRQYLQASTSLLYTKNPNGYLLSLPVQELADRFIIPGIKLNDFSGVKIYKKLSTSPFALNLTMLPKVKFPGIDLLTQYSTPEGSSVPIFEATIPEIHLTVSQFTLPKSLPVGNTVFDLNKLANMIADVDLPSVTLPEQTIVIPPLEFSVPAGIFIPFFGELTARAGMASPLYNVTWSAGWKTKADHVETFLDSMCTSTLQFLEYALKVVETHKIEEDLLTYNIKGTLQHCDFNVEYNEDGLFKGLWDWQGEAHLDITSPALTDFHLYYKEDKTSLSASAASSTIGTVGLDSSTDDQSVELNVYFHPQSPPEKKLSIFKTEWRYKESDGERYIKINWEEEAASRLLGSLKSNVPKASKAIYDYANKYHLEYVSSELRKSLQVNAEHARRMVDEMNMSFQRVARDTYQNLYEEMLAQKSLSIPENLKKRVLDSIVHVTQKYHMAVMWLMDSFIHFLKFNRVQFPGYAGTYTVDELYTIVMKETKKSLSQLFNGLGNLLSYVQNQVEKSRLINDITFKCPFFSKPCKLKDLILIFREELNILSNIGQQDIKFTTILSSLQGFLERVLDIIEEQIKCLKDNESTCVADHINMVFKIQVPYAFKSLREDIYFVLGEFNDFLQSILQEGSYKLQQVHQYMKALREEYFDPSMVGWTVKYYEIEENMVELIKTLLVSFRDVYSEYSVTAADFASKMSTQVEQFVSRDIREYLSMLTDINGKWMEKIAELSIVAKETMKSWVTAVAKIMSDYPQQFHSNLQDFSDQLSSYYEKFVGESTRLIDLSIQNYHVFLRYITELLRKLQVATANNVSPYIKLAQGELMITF
UniProt B1AUE5: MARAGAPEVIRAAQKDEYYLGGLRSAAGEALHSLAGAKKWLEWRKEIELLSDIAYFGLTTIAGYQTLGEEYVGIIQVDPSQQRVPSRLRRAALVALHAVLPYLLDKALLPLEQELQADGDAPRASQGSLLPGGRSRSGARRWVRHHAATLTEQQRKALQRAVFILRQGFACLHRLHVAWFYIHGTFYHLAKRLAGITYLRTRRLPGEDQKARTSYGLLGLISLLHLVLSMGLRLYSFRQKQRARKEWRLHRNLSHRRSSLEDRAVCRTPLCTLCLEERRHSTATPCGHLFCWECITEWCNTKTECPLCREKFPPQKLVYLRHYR
UniProt A2AJI0: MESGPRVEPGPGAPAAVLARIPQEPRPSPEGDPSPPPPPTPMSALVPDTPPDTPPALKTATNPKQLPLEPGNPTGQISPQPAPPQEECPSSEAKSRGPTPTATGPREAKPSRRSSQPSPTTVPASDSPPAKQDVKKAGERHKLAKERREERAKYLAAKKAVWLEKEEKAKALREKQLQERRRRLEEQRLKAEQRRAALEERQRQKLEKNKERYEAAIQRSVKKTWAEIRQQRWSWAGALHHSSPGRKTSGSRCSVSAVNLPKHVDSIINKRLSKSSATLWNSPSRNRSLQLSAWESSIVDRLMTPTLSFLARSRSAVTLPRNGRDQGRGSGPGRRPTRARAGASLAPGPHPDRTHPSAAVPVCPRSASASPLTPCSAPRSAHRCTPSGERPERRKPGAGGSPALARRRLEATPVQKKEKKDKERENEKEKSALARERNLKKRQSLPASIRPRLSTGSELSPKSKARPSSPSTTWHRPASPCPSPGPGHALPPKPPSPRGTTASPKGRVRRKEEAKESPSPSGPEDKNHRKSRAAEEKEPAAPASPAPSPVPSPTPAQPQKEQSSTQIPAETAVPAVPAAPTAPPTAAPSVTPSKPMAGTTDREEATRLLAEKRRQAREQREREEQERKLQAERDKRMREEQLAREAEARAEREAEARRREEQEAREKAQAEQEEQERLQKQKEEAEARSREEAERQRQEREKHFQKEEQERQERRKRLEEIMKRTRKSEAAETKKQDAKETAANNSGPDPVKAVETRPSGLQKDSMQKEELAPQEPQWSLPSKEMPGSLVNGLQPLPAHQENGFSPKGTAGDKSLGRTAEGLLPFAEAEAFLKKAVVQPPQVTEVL
UniProt A9JSM3: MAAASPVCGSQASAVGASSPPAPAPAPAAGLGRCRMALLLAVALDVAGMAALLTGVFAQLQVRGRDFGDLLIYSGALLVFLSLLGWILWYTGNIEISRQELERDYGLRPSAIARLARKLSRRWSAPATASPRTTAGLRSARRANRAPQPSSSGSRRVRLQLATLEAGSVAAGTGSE
UniProt E9Q1P8: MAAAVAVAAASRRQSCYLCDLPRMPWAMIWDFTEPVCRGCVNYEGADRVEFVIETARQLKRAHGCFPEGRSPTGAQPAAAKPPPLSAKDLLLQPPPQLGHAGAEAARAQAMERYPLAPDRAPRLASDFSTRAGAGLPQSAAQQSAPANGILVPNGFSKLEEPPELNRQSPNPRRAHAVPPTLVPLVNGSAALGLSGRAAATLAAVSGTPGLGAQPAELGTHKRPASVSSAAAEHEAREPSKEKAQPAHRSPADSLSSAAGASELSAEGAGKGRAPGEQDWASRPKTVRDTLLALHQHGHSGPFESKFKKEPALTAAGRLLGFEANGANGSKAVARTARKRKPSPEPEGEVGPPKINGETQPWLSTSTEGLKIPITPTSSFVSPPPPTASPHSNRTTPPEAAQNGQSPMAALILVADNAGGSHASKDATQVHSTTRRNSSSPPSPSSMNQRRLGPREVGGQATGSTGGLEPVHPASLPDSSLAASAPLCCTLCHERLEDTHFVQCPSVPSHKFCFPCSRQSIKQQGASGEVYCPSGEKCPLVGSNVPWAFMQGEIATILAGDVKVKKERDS
UniProt A2AEP0: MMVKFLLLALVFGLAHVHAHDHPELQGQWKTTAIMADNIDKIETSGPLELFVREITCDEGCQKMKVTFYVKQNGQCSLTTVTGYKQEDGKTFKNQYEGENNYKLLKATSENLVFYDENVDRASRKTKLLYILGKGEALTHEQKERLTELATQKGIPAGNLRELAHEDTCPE

Compound: CN[C@@H]1C[C@H]2O[C@@](C)([C@@H]1OC)n1c3ccccc3c3c4c(c5c6ccccc6n2c5c31)C(=O)NC4 [staurosporine]
Test: log2 fold change of pooled soluble protein (PISA), ligand vs vehicle (log2 ratio); higher = more thermally stabilized
Settings: ligand concentration: 20 uM; assay format: PISA pool 52.9/55.5/58.6 C

Row | Target | log2 fold change of pooled soluble protein
1 | UniProt E9Q4Z2 | -0.28
2 | UniProt B1AXP6 | -0.28
3 | UniProt B9EKI3 | -0.0114
4 | UniProt E9Q394 | -0.0685
5 | UniProt A2ASZ8 | -0.0354
6 | UniProt D3YXK2 | 0.00766
7 | UniProt A6H611 | 0.155
8 | UniProt B7ZMP1 | -0.052
9 | UniProt B2RX14 | -0.0429
10 | UniProt F8VPQ2 | -0.138
11 | UniProt A2ARA8 | -0.03
12 | UniProt A2RTL5 | -0.38
13 | UniProt E9Q5F9 | 0.228
14 | UniProt B2RX12 | -0.0225
15 | UniProt B1AR13 | -0.0698
16 | UniProt E9Q414 | 0.00212
17 | UniProt B2RVL6 | 0.115

Row | Target | log2 fold change of pooled soluble protein
18 | UniProt B7ZCC9 | 0.0151
19 | UniProt A2A8L5 | 0.0232
20 | UniProt A0JNU3 | 0.0341
21 | UniProt A2ARZ3 | -0.0553
22 | UniProt A2ASS6 | 0.0402
23 | UniProt B1AUE5 | 0.0684
24 | UniProt A2AJI0 | 0.0331
25 | UniProt D3Z5L6 | 0.0851
26 | UniProt A9JSM3 | 0.0924
27 | UniProt A2AKQ0 | -0.122
28 | UniProt E9Q634 | 0.0169
29 | UniProt E9Q1P8 | 0.0726
30 | UniProt A2AEP0 | 0.0856
31 | UniProt D3YZP9 | 0.0739
32 | UniProt E9Q557 | -0.082
33 | UniProt D3Z4S3 | 0.216

Taken from above:
For log2 fold change of pooled soluble protein, UniProt A9JSM3 is entered as 0.0924
For log2 fold change of pooled soluble protein, UniProt D3Z5L6 is entered as 0.0851
For log2 fold change of pooled soluble protein, UniProt E9Q1P8 is entered as 0.0726
